# Results are given in words; binding and its absence hold for the method and conditions named. In cells and extracts the contact can be indirect. A result given as binding can be weak or reduced; the word gives no strength. Where a sequence is shown, tags or fusion partners need not be part of it.
# Protein sequences, listed by entry. Tags and fused reporters are not part of them. Lines headed by an entry give the natural chain unless they say otherwise; changes in a name come on top.
# UniProt Q9H668: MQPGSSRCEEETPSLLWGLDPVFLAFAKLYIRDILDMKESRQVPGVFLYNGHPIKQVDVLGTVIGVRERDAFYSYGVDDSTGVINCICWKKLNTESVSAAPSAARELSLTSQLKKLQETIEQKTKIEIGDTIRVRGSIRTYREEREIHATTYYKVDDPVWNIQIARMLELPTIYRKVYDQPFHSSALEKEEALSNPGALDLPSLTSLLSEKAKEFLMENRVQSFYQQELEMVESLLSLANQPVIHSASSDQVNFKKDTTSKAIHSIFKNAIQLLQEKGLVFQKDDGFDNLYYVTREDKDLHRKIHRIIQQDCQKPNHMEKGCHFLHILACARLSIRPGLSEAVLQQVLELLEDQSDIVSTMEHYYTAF
# UniProt P09884: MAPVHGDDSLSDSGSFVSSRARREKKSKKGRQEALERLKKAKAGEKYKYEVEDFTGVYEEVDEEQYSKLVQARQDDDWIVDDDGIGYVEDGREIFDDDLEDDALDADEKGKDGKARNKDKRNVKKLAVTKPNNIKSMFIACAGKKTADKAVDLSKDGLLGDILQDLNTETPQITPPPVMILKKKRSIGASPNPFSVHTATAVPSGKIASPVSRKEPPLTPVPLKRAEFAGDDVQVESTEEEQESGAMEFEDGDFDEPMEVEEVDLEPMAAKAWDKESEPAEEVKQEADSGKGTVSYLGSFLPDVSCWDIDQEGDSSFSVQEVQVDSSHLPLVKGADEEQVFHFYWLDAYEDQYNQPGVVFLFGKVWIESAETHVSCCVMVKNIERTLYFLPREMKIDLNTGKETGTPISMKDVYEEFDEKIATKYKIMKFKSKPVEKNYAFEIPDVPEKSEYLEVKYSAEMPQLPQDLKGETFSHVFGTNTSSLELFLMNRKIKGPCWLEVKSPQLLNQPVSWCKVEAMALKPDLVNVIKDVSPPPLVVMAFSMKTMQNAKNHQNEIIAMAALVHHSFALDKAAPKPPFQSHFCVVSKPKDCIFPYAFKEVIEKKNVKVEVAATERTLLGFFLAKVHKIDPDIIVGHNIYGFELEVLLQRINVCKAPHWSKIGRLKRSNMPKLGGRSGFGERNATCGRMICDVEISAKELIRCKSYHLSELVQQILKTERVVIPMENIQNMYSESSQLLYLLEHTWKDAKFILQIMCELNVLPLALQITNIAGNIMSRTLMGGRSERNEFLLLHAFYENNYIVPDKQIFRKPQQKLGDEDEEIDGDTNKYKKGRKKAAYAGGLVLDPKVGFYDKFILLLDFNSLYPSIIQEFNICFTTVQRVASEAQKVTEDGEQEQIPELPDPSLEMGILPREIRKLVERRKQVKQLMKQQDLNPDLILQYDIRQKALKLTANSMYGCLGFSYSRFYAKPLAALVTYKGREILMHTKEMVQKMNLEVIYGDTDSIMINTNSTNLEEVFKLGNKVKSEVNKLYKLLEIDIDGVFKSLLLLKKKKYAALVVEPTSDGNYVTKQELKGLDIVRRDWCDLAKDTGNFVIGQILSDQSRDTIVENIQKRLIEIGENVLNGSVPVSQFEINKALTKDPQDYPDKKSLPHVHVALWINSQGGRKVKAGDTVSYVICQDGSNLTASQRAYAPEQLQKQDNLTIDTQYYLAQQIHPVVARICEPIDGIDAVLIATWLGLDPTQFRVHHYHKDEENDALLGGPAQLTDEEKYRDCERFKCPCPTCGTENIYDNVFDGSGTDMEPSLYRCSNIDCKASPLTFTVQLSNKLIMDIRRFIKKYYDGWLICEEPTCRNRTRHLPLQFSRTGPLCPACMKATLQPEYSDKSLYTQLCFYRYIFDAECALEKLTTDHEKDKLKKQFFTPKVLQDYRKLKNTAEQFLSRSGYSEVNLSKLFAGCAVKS
# B1: HA-TEN1 (protein, UniProt Q86WV5 1-123)
# chain: MMLPKPGTYYLPWEVSAGQVPDGSTLRTFGRLCLYDMIQSRVTLMAQHGSDQHQVLVCTKLVEPFHAQVGSLYIVLGELQHQQDRGSVVKARVLTCVEGMNLPLLEQAIREQRLYKQERGGSQ
# B2: Flag-CTC1 (protein, UniProt Q2NKJ3 1-1217)
# chain: MAAGRAQVPSSEQAWLEDAQVFIQKTLCPAVKEPNVQLTPLVIDCVKTVWLSQGRNQGSTLPLSYSFVSVQDLKTHQRLPCCSHLSWSSSAYQAWAQEAGPNGNPLPREQLLLLGTLTDLSADLEQECRNGSLYVRDNTGVLSCELIDLDLSWLGHLFLFPRWSYLPPARWNSSGEGHLELWDAPVPVFPLTISPGPVTPIPVLYPESASCLLRLRNKLRGVQRNLAGSLVRLSALVKSKQKAYFILSLGRSHPAVTHVSIIVQVPAQLVWHRALRPGTAYVLTELRVSKIRGQRQHVWMTSQSSRLLLLKPECVQELELELEGPLLEADPKPLPMPSNSEDKKDPESLVRYSRLLSYSGAVTGVLNEPAGLYELDGQLGLCLAYQQFRGLRRVMRPGVCLQLQDVHLLQSVGGGTRRPVLAPCLRGAVLLQSFSRQKPGAHSSRQAYGASLYEQLVWERQLGLPLYLWATKALEELACKLCPHVLRHHQFLQHSSPGSPSLGLQLLAPTLDLLAPPGSPVRNAHNEILEEPHHCPLQKYTRLQTPSSFPTLATLKEEGQRKAWASFDPKALLPLPEASYLPSCQLNRRLAWSWLCLLPSAFCPAQVLLGVLVASSHKGCLQLRDQSGSLPCLLLAKHSQPLSDPRLIGCLVRAERFQLIVERDVRSSFPSWKELSMPGFIQKQQARVYVQFFLADALILPVPRPCLHSATPSTPQTDPTGPEGPHLGQSRLFLLCHKEALMKRNFCVPPGASPEVPKPALSFYVLGSWLGGTQRKEGTGWGLPEPQGNDDNDQKVHLIFFGSSVRWFEFLHPGQVYRLIAPGPATPMLFEKDGSSCISRRPLELAGCASCLTVQDNWTLELESSQDIQDVLDANKSLPESSLTDLLSDNFTDSLVSFSAEILSRTLCEPLVASLWMKLGNTGAMRRCVKLTVALETAECEFPPHLDVYIEDPHLPPSLGLLPGARVHFSQLEKRVSRSHNVYCCFRSSTYVQVLSFPPETTISIPLPHIYLAELLQGGQSPFQATASCHIVSVFSLQLFWVCAYCTSICRQGKCTRLGSTCPTQTAISQAIIRLLVEDGTAEAVVTCRNHHVAAALGLCPREWASLLDFVQVPGRVVLQFAGPGAQLESSARVDEPMTMFLWTLCTSPSVLRPIVLSFELERKPSKIVPLEPPRLQRFQCGELPFLTHVNPRLRLSCLSIRESEYSSSLGILASSC
# Biological target: Myc-STN1 ΔIDR (human) (UniProt Q9H668)
# Assay: co-IP; HEK293T cells co-transfected with Flag-CTC1, HA-TEN1 and WT or mutant Myc-STN1, treated with or without HU (2 mM; 16 h or 24 h); lysis in 0.1% NP-40, 50 mM Tris-HCl pH 7.4, 50 mM NaCl, 2 mM DTT; anti-Myc immunoprecipitation overnight at 4 °C; Western blot
row,binding,Molecule
1,binds,POLA1 (from UniProt P09884 1-1462)
2,binds,B1
3,binds,B2
